No constants are given. Whether binding was seen depends on the method and setting. Binding seen in cells or lysates may run through a third protein. These calls come from enrichment with a bait or labelling near it, and not all partners need be listed. For some of these results: Sequences can lack the tags named with a protein.
T1: AP1μA^EN-TurboID-V5 (human (endogenous in HeLa)) (UniProt Q9BXS5)
T1 sequence: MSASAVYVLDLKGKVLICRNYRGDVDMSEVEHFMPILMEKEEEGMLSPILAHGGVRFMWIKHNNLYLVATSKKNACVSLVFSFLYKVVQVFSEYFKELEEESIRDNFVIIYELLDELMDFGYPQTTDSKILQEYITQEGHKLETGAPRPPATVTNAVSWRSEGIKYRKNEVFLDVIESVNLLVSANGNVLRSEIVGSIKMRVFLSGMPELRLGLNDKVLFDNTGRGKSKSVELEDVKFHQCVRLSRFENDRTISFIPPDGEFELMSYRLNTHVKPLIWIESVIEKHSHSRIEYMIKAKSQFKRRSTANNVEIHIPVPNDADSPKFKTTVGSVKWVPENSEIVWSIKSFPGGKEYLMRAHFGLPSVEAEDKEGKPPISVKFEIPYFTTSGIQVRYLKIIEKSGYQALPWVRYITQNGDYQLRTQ

Protein sequences, listed by entry. Tags and fused reporters are not part of them. Residues count along the entry.
UniProt Q96CW1: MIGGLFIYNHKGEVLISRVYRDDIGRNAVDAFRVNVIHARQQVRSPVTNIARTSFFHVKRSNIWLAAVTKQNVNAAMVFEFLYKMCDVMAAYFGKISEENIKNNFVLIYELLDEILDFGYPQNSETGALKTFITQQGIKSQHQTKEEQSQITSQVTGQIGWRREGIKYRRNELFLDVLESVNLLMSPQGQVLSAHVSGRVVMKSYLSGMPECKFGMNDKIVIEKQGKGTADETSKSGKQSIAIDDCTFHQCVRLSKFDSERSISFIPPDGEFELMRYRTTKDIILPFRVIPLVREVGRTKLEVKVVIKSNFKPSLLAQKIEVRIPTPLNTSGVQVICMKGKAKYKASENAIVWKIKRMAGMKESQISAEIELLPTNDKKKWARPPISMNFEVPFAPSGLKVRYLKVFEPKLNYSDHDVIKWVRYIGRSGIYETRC
UniProt Q8TCG2: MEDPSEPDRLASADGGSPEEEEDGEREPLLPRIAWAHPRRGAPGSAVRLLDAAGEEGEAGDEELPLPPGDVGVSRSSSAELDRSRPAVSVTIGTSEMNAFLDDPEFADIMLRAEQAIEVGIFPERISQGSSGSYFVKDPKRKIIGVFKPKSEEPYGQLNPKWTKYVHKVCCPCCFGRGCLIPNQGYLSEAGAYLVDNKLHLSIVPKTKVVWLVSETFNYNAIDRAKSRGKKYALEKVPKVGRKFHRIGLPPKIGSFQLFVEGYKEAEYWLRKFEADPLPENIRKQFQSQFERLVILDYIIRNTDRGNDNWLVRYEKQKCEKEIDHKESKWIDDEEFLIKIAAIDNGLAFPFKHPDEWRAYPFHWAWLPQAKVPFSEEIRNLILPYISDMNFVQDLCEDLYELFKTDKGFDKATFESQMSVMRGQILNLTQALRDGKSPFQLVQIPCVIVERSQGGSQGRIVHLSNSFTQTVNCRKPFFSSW
UniProt Q9H1H9: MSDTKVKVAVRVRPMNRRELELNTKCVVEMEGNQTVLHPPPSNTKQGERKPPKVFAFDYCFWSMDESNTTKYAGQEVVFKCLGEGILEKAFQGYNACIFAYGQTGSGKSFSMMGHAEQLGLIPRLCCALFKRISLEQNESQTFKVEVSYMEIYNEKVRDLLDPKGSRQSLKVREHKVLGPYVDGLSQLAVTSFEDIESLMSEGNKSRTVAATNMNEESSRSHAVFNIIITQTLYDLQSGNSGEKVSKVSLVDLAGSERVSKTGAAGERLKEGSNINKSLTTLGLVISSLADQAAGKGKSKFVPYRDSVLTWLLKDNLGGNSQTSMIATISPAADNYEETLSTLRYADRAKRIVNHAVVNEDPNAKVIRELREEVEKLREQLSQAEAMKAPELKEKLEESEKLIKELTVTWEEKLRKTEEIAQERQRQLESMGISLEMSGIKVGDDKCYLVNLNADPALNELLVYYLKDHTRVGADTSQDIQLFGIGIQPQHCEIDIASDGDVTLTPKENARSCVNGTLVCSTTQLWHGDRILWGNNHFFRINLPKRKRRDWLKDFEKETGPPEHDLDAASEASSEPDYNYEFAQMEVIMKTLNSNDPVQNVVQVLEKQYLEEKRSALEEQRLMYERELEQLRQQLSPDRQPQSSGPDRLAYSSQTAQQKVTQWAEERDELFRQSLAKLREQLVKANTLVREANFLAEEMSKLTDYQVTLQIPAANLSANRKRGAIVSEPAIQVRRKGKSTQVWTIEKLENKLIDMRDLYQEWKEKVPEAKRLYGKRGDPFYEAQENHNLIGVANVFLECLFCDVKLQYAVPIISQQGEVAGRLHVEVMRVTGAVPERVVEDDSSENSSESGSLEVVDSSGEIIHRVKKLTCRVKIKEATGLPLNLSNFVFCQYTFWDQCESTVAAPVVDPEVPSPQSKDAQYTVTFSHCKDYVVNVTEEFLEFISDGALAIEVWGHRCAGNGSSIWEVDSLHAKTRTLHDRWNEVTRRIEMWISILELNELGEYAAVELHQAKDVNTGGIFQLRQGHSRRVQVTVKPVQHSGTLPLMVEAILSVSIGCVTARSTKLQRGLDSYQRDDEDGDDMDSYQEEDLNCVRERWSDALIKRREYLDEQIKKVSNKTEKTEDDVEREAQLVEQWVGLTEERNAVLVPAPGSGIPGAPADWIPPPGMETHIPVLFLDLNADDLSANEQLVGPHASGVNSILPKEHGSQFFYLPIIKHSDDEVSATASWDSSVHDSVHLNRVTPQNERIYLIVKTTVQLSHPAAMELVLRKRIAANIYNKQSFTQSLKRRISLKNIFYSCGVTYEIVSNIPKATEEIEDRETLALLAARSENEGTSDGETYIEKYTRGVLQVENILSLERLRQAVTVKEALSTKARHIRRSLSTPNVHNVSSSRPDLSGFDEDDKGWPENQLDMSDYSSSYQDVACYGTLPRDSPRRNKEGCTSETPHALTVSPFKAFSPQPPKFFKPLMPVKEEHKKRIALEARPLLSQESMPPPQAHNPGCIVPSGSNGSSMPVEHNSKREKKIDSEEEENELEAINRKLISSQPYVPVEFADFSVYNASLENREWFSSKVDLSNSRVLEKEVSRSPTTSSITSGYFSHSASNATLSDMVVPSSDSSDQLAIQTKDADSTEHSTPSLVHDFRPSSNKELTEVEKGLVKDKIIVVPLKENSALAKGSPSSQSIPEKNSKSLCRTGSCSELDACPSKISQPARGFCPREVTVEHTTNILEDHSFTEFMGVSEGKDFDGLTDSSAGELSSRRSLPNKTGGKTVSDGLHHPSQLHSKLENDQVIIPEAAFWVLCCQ
UniProt Q9UJY4: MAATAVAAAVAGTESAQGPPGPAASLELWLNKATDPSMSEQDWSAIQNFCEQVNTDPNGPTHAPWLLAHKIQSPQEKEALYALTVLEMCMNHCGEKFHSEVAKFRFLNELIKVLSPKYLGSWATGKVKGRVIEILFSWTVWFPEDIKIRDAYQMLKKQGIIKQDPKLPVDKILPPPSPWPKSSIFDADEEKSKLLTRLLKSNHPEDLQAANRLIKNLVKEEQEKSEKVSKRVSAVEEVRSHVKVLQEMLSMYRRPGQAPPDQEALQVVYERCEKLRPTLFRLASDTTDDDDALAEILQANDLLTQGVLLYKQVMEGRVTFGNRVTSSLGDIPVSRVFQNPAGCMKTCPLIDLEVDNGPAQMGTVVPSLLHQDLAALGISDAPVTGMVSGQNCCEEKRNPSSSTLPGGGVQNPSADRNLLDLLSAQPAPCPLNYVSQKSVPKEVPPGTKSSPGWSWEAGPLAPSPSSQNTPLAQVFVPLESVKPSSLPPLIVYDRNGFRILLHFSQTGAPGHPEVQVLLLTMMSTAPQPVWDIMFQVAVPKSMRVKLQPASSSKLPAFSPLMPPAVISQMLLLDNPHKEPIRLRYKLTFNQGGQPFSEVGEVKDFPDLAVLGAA
UniProt P06756, residues 31-1048: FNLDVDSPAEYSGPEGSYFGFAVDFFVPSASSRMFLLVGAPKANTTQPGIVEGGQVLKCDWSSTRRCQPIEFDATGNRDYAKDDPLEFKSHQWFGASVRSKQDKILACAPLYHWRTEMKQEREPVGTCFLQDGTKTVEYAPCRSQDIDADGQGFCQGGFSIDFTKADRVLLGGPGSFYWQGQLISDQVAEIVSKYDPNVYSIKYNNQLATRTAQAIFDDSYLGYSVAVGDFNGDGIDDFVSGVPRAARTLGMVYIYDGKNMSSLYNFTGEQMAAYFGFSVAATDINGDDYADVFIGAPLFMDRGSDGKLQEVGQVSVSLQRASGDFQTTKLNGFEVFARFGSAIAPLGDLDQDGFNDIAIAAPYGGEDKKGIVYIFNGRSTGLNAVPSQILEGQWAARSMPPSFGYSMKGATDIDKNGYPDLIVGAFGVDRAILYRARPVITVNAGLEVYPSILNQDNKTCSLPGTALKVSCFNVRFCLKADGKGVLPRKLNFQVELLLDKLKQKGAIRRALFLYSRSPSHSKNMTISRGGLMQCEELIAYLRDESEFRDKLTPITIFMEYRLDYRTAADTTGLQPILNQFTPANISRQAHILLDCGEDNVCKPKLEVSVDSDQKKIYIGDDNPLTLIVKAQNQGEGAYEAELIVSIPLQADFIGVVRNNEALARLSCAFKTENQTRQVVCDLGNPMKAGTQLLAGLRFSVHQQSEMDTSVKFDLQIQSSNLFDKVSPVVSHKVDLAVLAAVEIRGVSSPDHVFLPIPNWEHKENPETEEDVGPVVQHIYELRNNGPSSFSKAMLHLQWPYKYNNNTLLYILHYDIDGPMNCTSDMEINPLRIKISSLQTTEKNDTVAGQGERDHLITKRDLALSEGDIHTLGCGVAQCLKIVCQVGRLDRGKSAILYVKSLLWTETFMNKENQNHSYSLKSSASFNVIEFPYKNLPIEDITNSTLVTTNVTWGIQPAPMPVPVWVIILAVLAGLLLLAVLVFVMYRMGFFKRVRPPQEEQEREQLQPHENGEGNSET
UniProt Q14677: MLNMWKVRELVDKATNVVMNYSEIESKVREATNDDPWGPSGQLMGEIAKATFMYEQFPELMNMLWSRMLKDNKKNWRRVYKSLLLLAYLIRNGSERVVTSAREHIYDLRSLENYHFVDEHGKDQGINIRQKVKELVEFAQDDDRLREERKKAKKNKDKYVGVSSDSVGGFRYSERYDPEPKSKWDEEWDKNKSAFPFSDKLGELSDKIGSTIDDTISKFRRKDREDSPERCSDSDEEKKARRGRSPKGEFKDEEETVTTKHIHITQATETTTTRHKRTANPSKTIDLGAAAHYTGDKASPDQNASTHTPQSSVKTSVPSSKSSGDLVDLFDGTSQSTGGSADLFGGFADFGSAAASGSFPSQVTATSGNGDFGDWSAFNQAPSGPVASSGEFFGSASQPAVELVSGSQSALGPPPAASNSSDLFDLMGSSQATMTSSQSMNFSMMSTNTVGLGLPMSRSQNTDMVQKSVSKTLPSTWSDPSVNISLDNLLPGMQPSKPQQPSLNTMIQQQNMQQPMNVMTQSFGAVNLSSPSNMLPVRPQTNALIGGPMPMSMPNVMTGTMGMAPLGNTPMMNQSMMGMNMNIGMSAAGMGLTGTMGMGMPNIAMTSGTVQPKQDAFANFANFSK
UniProt Q04656: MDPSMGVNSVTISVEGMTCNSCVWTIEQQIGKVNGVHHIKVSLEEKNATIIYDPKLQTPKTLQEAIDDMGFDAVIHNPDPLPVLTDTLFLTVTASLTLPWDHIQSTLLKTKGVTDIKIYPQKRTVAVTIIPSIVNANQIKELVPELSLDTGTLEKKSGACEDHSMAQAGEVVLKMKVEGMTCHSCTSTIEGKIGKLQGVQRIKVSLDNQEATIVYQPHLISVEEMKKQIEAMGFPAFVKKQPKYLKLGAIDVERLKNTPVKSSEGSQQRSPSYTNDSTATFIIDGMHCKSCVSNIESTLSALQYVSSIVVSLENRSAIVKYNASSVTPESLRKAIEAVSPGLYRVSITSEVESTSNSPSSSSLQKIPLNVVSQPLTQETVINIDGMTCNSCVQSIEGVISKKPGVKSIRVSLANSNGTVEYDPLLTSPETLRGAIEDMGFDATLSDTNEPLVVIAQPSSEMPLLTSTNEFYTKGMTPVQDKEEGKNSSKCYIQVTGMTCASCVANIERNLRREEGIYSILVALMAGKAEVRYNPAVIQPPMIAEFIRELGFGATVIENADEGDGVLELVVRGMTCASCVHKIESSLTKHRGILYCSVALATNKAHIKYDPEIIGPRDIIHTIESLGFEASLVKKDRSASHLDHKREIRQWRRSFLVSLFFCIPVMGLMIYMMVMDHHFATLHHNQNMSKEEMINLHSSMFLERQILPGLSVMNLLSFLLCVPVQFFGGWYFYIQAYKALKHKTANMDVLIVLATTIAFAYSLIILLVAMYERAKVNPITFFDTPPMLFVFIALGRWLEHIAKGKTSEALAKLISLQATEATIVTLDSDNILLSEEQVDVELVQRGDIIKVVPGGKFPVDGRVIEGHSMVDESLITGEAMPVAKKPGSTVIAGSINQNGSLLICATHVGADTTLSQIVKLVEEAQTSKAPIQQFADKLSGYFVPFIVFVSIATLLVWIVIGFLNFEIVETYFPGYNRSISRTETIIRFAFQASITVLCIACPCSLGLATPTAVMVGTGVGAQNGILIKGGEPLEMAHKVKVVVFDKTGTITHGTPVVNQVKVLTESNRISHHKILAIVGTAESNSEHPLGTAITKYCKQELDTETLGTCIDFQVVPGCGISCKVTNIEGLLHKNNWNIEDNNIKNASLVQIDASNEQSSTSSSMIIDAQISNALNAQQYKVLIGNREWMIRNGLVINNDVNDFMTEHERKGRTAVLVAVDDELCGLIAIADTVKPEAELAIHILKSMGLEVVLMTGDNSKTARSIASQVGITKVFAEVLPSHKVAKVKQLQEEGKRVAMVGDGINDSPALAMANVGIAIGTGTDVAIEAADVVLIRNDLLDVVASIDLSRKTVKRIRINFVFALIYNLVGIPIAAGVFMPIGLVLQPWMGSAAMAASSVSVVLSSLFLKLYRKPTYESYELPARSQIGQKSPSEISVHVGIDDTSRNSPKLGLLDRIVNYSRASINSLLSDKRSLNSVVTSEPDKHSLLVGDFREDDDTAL

T2: AP1μA-TurboID-V5 (transiently overexpressed) (UniProt Q9BXS5)
T2 sequence: T1 sequence

T3: V5-TurboID-CLCa^EN (human (endogenous in HeLa)) (UniProt P09496)
T3 sequence: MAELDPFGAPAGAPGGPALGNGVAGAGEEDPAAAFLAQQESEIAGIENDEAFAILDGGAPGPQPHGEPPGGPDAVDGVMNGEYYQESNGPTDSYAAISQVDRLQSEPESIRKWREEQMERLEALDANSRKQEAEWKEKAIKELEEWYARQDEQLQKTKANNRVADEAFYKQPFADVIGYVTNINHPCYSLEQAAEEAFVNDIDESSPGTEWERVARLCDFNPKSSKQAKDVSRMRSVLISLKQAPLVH

B1: AP-1β1 (protein, UniProt Q10567 1-949)
chain: MTDSKYFTTTKKGEIFELKAELNSDKKEKKKEAVKKVIASMTVGKDVSALFPDVVNCMQTDNLELKKLVYLYLMNYAKSQPDMAIMAVNTFVKDCEDPNPLIRALAVRTMGCIRVDKITEYLCEPLRKCLKDEDPYVRKTAAVCVAKLHDINAQLVEDQGFLDTLKDLISDSNPMVVANAVAALSEIAESHPSSNLLDLNPQSINKLLTALNECTEWGQIFILDCLANYMPKDDREAQSICERVTPRLSHANSAVVLSAVKVLMKFMEMLSKDLDYYGTLLKKLAPPLVTLLSAEPELQYVALRNINLIVQKRPEILKHEMKVFFVKYNDPIYVKLEKLDIMIRLASQANIAQVLAELKEYATEVDVDFVRKAVRAIGRCAIKVEQSAERCVSTLLDLIQTKVNYVVQEAIVVIKDIFRKYPNKYESVIATLCENLDSLDEPEARAAMIWIVGEYAERIDNADELLESFLEGFHDESTQVQLQLLTAIVKLFLKKPTETQELVQQVLSLATQDSDNPDLRDRGYIYWRLLSTDPVAAKEVVLAEKPLISEETDLIEPTLLDELICYIGTLASVYHKPPSAFVEGGRGVVHKSLPPRTASSESAESPETAPTGAPPGEQPDVIPAQGDLLGDLLNLDLGPPVSGPPLATSSVQMGAVDLLGGGLDSLMGDEPEGIGGTNFVAPPTAAVPANLGAPIGSGLSDLFDLTSGVGTLSGSYVAPKAVWLPAMKAKGLEISGTFTRQVGSISMDLQLTNKALQVMTDFAIQFNRNSFGLAPAAPLQVHAPLSPNQTVEISLPLSTVGSVMKMEPLNNLQVAVKNNIDVFYFSTLYPLHILFVEDGKMDRQMFLATWKDIPNENEAQFQIRDCPLNAEAASSKLQSSNIFTVAKRNVEGQDMLYQSLKLTNGIWVLAELRIQPGNPSCTDLELSLKCRAPEVSQHVYQAYETILKN
B2: Sodium-bicarbonate co-transporter NBCn1 (SLC4A7) (protein, UniProt Q9Y6M7 1-1214)
chain: MERFRLEKKLPGPDEEAVVDLGKTSSTVNTKFEKEELESHRAVYIGVHVPFSKESRRRHRHRGHKHHHRRRKDKESDKEDGRESPSYDTPSQRVQFILGTEDDDEEHIPHDLFTEMDELCYRDGEEYEWKETARWLKFEEDVEDGGDRWSKPYVATLSLHSLFELRSCILNGTVMLDMRASTLDEIADMVLDNMIASGQLDESIRENVREALLKRHHHQNEKRFTSRIPLVRSFADIGKKHSDPHLLERNGEGLSASRHSLRTGLSASNLSLRGESPLSLLLGHLLPSSRAGTPAGSRCTTPVPTPQNSPPSSPSISRLTSRSSQESQRQAPELLVSPASDDIPTVVIHPPEEDLEAALKGEEQKNEENVDLTPGILASPQSAPGNLDNSKSGEIKGNGSGGSRENSTVDFSKVDMNFMRKIPTGAEASNVLVGEVDFLERPIIAFVRLAPAVLLTGLTEVPVPTRFLFLLLGPAGKAPQYHEIGRSIATLMTDEIFHDVAYKAKDRNDLLSGIDEFLDQVTVLPPGEWDPSIRIEPPKSVPSQEKRKIPVFHNGSTPTLGETPKEAAHHAGPELQRTGRLFGGLILDIKRKAPFFLSDFKDALSLQCLASILFLYCACMSPVITFGGLLGEATEGRISAIESLFGASLTGIAYSLFAGQPLTILGSTGPVLVFEKILYKFCRDYQLSYLSLRTSIGLWTSFLCIVLVATDASSLVCYITRFTEEAFAALICIIFIYEALEKLFDLGETYAFNMHNNLDKLTSYSCVCTEPPNPSNETLAQWKKDNITAHNISWRNLTVSECKKLRGVFLGSACGHHGPYIPDVLFWCVILFFTTFFLSSFLKQFKTKRYFPTKVRSTISDFAVFLTIVIMVTIDYLVGVPSPKLHVPEKFEPTHPERGWIISPLGDNPWWTLLIAAIPALLCTILIFMDQQITAVIINRKEHKLKKGAGYHLDLLMVGVMLGVCSVMGLPWFVAATVLSISHVNSLKVESECSAPGEQPKFLGIREQRVTGLMIFILMGLSVFMTSVLKFIPMPVLYGVFLYMGVSSLKGIQLFDRIKLFGMPAKHQPDLIYLRYVPLWKVHIFTVIQLTCLVLLWVIKVSAAAVVFPMMVLALVFVRKLMDLCFTKRELSWLDDLMPESKKKKEDDKKKKEKEEAERMLQDDDDTVHLPFEGGSLLQIPVKALKYSPDKPVSVKISFEDEPRKKYVDAETSL
B3: Epsin-2 (EPS2) (protein, UniProt O95208 1-641)
chain: MTTSSIRRQMKNIVNNYSEAEIKVREATSNDPWGPSSSLMTEIADLTYNVVAFSEIMSMVWKRLNDHGKNWRHVYKALTLLDYLIKTGSERVAQQCRENIFAIQTLKDFQYIDRDGKDQGINVREKSKQLVALLKDEERLKAERAQALKTKERMAQVATGMGSNQITFGRGSSQPNLSTSHSEQEYGKAGGSPASYHGSPEASLCPQHRTGAPLGQSEELQPLSQRHPFLPHLGLASRPNGDWSQPCLTCDRAARATSPRVSSELEQARPQTSGEEELQLQLALAMSREVAEQEERLRRGDDLRLQMALEESRRDTVKIPKKKEHGSLPQQTTLLDLMDALPSSGPAAQKAEPWGPSASTNQTNPWGGPAAPASTSDPWPSFGTKPAASIDPWGVPTGATVQSVPKNSDPWAASQQPASSAGKRASDAWGAVSTTKPVSVSGSFELFSNLNGTIKDDFSEFDNLRTSKKTAESVTSLPSQNNGTTSPDPFESQPLTVASSKPSSARKTPESFLGPNAALVNLDSLVTRPAPPAQSLNPFLAPGAPATSAPVNPFQVNQPQPLTLNQLRGSPVLGTSTSFGPGPGVESMAVASMTSAAPQPALGATGSSLTPLGPAMMNMVGSVGIPPSAAQATGTTNPFLL
B4: GGA1 (protein, UniProt Q9UJY5 1-639)
chain: MEPAMEPETLEARINRATNPLNKELDWASINGFCEQLNEDFEGPPLATRLLAHKIQSPQEWEAIQALTVLETCMKSCGKRFHDEVGKFRFLNELIKVVSPKYLGSRTSEKVKNKILELLYSWTVGLPEEVKIAEAYQMLKKQGIVKSDPKLPDDTTFPLPPPRPKNVIFEDEEKSKMLARLLKSSHPEDLRAANKLIKEMVQEDQKRMEKISKRVNAIEEVNNNVKLLTEMVMSHSQGGAAAGSSEDLMKELYQRCERMRPTLFRLASDTEDNDEALAEILQANDNLTQVINLYKQLVRGEEVNGDATAGSIPGSTSALLDLSGLDLPPAGTTYPAMPTRPGEQASPEQPSASVSLLDDELMSLGLSDPTPPSGPSLDGTGWNSFQSSDATEPPAPALAQAPSMESRPPAQTSLPASSGLDDLDLLGKTLLQQSLPPESQQVRWEKQQPTPRLTLRDLQNKSSSCSSPSSSATSLLHTVSPEPPRPPQQPVPTELSLASITVPLESIKPSNILPVTVYDQHGFRILFHFARDPLPGRSDVLVVVVSMLSTAPQPIRNIVFQSAVPKVMKVKLQPPSGTELPAFNPIVHPSAITQVLLLANPQKEKVRLRYKLTFTMGDQTYNEMGDVDQFPPPETWGSL
B5: GGA3 (protein, UniProt Q9NZ52 1-723)
chain: MAEAEGESLESWLNKATNPSNRQEDWEYIIGFCDQINKELEGPQIAVRLLAHKIQSPQEWEALQALTVLEACMKNCGRRFHNEVGKFRFLNELIKVVSPKYLGDRVSEKVKTKVIELLYSWTMALPEEAKIKDAYHMLKRQGIVQSDPPIPVDRTLIPSPPPRPKNPVFDDEEKSKLLAKLLKSKNPDDLQEANKLIKSMVKEDEARIQKVTKRLHTLEEVNNNVRLLSEMLLHYSQEDSSDGDRELMKELFDQCENKRRTLFKLASETEDNDNSLGDILQASDNLSRVINSYKTIIEGQVINGEVATLTLPDSEGNSQCSNQGTLIDLAELDTTNSLSSVLAPAPTPPSSGIPILPPPPQASGPPRSRSSSQAEATLGPSSTSNALSWLDEELLCLGLADPAPNVPPKESAGNSQWHLLQREQSDLDFFSPRPGTAACGASDAPLLQPSAPSSSSSQAPLPPPFPAPVVPASVPAPSAGSSLFSTGVAPALAPKVEPAVPGHHGLALGNSALHHLDALDQLLEEAKVTSGLVKPTTSPLIPTTTPARPLLPFSTGPGSPLFQPLSFQSQGSPPKGPELSLASIHVPLESIKPSSALPVTAYDKNGFRILFHFAKECPPGRPDVLVVVVSMLNTAPLPVKSIVLQAAVPKSMKVKLQPPSGTELSPFSPIQPPAAITQVMLLANPLKEKVRLRYKLTFALGEQLSTEVGEVDQFPPVEQWGNL

What was measured:
Assay in all cases: proximity labelling
[1] = biological target: T1, AP1μA^EN-TurboID-V5 (human (endogenous in HeLa))
[2] = biological target: T2, AP1μA-TurboID-V5 (transiently overexpressed)
[3] = biological target: T3, V5-TurboID-CLCa^EN (human (endogenous in HeLa))
[4] = biological target: AP2μ^EN-TurboID-V5 (human (endogenous in HeLa)) (UniProt Q96CW1)

| Molecule | binding [1] | further results |
| --- | --- | --- |
| PI4-kinase PI4K2B (from UniProt Q8TCG2 1-481) | binds |  |
| AP-1s (human (endogenous in HeLa)) | binds |  |
| kinesin-like protein KIF13A (from UniProt Q9H1H9 1-1805) | binds | binding [2]: binds |
| Epsin-1 (EPS1) (from UniProt Q9Y6I3 1-576) |  | binding [3]: binds |
| GGA2 (from UniProt Q9UJY4 1-613) | binds | binding [2]: binds |
| ITGAV (from UniProt P06756 31-1048) |  | binding [4]: binds |
| EpsinR (CLINT1) (from UniProt Q14677 1-625) | binds |  |
| AP-1γ (human (endogenous in HeLa)) | binds | binding [2]: binds |
| ATP7A (from UniProt Q04656 1-1500) | binds |  |
| ITGA1 (from UniProt P56199 29-1179) |  | binding [4]: binds |
| Synaptojanin-1 (SYNJ1) (from UniProt O43426 1-1573) |  | binding [4]: binds; binding [3]: binds |
| HEAT repeat containing 5B (HEATR5B) (from UniProt Q9P2D3 1-2071) |  | binding [3]: binds |
| B1 | binds | binding [2]: binds |
| B2 | binds |  |
| B3 |  | binding [4]: binds |
| B4 | binds |  |
| B5 | binds |  |

Source: paper doi:10.1101/2021.11.19.469212
